Test results: PubChem BioAssay AID1487 (National Center for Advancing Translational Sciences (NCATS), 2009)
The list shows a part of the results. These are further read-outs of the screen, such as a control signal, another cell line or another target. No call is given for them. Compounds called inactive in the main read-out are mostly missing here. The note in brackets gives the kind of curve behind each potency; many fits are weak.

Experiment: qHTS Assay for Modulators of Lamin A Splicing
Conditions: HeLa LMNA splicing GFP/RFP minigene ratio, 48 h
In short: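 S3 HeLa stable clones carrying a lamin A-EGFP splicing minigene plus DsRed2 were seeded at 600 cells/well in Opti-MEM with 2% FBS, pin-dosed and incubated 48 h at 37°C. Acumen cytometry (488 nm) gave the GFP/RFP total-intensity ratio.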

[1] = measured here: GFP splicing reporter channel
[2] = measured here: RFP viability control channel

## CC(=O)O[C@@H](C)C[N+](C)(C)C
[1]
  AC50: 0.000891 µM [falling, full curve, poor fit]
[2]
  AC50: 0.316 µM [rising, full curve, poor fit]

## Cc1ccc(-c2csc3ncnc(-n4cnc5ccccc54)c23)cc1
[2]
  AC50: 20 µM [rising, single point]

## Cc1ccc(CNc2ccc3c(c2)OCO3)cc1
[1]
  AC50: 14.1 µM [rising, partial curve, poor fit]
[2]
  AC50: 0.891 µM [rising, partial curve, poor fit]

## COC(=O)n1c(=O)oc2cc(S(=O)(=O)N3CCCCC3)ccc21
[2]
  AC50: 31.6 µM [rising, single point]

## O=S(=O)(NCC(c1ccco1)N1CCN(c2ccccc2F)CC1)c1ccc(F)cc1 (stereo unspecified)
[2]
  AC50: 35.5 µM [rising, single point]

## COc1ccc(C(=O)CSc2ccc(-c3ccc(C)cc3)nn2)cc1
[2]
  AC50: 35.5 µM [rising, single point]

## O=c1[nH]c(=O)n(-c2ccc(F)cc2)c2c1C(C(F)(F)F)(C(F)(F)F)N=C(c1ccc(F)cc1)N2
[2]
  AC50: 8.91 µM [rising, partial curve]

## c1ccc2cc(CSCc3nc4ccccc4[nH]3)ccc2c1
[2]
  AC50: 17.8 µM [rising, partial curve]

## Cc1nn2c(=O)cc(COC(=O)Cc3ccccc3)nc2s1
[1]
  AC50: 1.41 µM [rising, full curve, poor fit]

## O=C(O)CC1S/C(=N/N=C/c2ccc(-c3ccccc3[N+](=O)[O-])o2)NC1=O (stereo unspecified)
[2]
  AC50: 12.6 µM [falling, partial curve, poor fit]

## COC(=O)C1=C(C)Nc2ncnn2C1c1ccc(OC(=O)c2ccccc2)cc1 (stereo unspecified)
[1]
  AC50: 35.5 µM [falling, single point]
[2]
  AC50: 35.5 µM [falling, single point]

## COc1ccc(NS(=O)(=O)c2ccc(NS(C)(=O)=O)cc2)cc1
[1]
  AC50: 31.6 µM [rising, single point]
[2]
  AC50: 31.6 µM [rising, single point]

## CCN(C(=O)COC(=O)/C=C/c1nc2ccccc2s1)C1CCS(=O)(=O)C1 (stereo unspecified)
[2]
  AC50: 8.91 µM [rising, partial curve]

## O=c1[nH]c2ccccc2nc1-c1cccs1
[1]
  AC50: 0.501 µM [falling, full curve]
[2]
  AC50: 0.501 µM [falling, full curve]

## Cc1sc2nc(C(C)C)nc(SCC(=O)NCc3ccco3)c2c1C
[1]
  AC50: 15.8 µM [rising, single point]
[2]
  AC50: 14.1 µM [rising, single point]

## CCc1ccc(CNC(=O)CN2C(=O)CSc3c2c(C)nn3-c2ccccc2)cc1
[1]
  AC50: 0.00316 µM [falling, full curve, poor fit]
[2]
  AC50: 0.00447 µM [falling, full curve, poor fit]

## CC(=O)c1cccc(S(=O)(=O)N2CCN(c3nc4cc(C)cc(C)c4cc3C#N)CC2)c1
[2]
  AC50: 12.6 µM [rising, partial curve]

## COc1ccc(-c2c3c(cc(C)[n+]2[O-])oc2ccc(OC)cc23)cc1
[1]
  AC50: 14.1 µM [rising, single point]
[2]
  AC50: 22.4 µM [rising, single point]

## CCCSc1nsc(NC(=O)C(c2ccccc2)c2ccccc2)n1
[1]
  AC50: 22.4 µM [falling, single point]
[2]
  AC50: 22.4 µM [falling, partial curve]

## CC(C)NC(=O)C1CCN(C2CCN(C(=O)C3=CCCC3)CC2)CC1
[2]
  AC50: 0.501 µM [falling, partial curve, poor fit]

## C[C@@H]1C(=O)NC2=Nc3cccc(Cl)c3CN21
[1]
  AC50: 0.00501 µM [falling, full curve, poor fit]
[2]
  AC50: 0.00501 µM [falling, full curve, poor fit]

## COc1ccc(-c2csc(NC(=O)CSc3nc(C)nc4sc(C(=O)O)c(C)c34)n2)cc1
[1]
  AC50: 12.6 µM [rising, partial curve, poor fit]

## O=C(/C=C/c1cccs1)c1cc(Cl)ccc1O
[1]
  AC50: 35.5 µM [falling, single point]
[2]
  AC50: 14.1 µM [falling, partial curve, poor fit]

## COC(=O)[C@@]1(Cc2ccc(F)cc2)[C@H]2c3cc(C(=O)N4CCCC4)n(Cc4ccc(C(F)(F)F)nc4)c3C[C@H]2CN1C(=O)c1ccccc1
[1]
  AC50: 11.2 µM [rising, single point]
[2]
  AC50: 14.1 µM [rising, single point]

## COC(=O)N/N=C/c1ccc([N+](=O)[O-])s1
[1]
  AC50: 31.6 µM [rising, single point]
[2]
  AC50: 31.6 µM [rising, single point]

## O=C(NCCc1ccccc1)C1CCC(Cn2c(=O)c3ccccc3n(Cc3cccnc3)c2=O)CC1 (stereo unspecified)
[1]
  AC50: 2.82 µM [rising, partial curve, poor fit]
[2]
  AC50: 14.1 µM [rising, partial curve, poor fit]

## Cn1c(N2CCN(C(=O)Nc3ccc(C(F)(F)F)cc3)CC2)nc2ccccc21
[2]
  AC50: 25.1 µM [rising, single point]

## COc1cc(/C=C2/CCC/C(=C\c3cc(O)c(OC)c(Cl)c3)C2=O)cc(Cl)c1O
[1]
  AC50: 10 µM [falling, partial curve]
[2]
  AC50: 7.08 µM [falling, full curve]

## CC(NC(=O)Cn1ccsc1=N)C12CC3CC(CC(C3)C1)C2 (stereo unspecified)
[2]
  AC50: 7.94 µM [rising, partial curve, poor fit]

## COc1cc(/C=N/Nc2snc(SC)c2C#N)ccc1O
[2]
  AC50: 2.51 µM [falling, single point]

## O=C(Nc1ccc2c(c1)N(Cc1ccccc1)C(=O)c1ccccc1S2)NC1CC1
[1]
  AC50: 35.5 µM [rising, single point]
[2]
  AC50: 25.1 µM [rising, single point]

## Oc1c(CN2CCN(c3ccc(F)cc3)CC2)cc(Cl)c2cccnc12
[2]
  AC50: 15.8 µM [rising, partial curve]

## O=C(NC1CC(=O)N(c2ccccc2)C1)c1ccc(S(=O)(=O)N2CCCCC2)cc1 (stereo unspecified)
[1]
  AC50: 0.00447 µM [falling, full curve, poor fit]
[2]
  AC50: 0.00794 µM [falling, full curve, poor fit]

## CCC1CCCCN1S(=O)(=O)c1ccc(NC(=O)c2cccs2)cc1 (stereo unspecified)
[2]
  AC50: 15.8 µM [rising, single point]

## O=C(Nc1ccc(NC(=O)c2sc3ccccc3c2Cl)cc1Cl)c1ccco1
[1]
  AC50: 17.8 µM [falling, single point]
[2]
  AC50: 35.5 µM [falling, single point]

## CN1Cc2c(N)cccc2[C@H](c2ccccc2)C1
[1]
  AC50: 7.94 µM [falling, partial curve, poor fit]
[2]
  AC50: 12.6 µM [falling, single point]

## Cc1ccc2c(c1)c(Sc1ccccc1)c(CC(=O)O)n2C
[1]
  AC50: 4.47 µM [rising, partial curve]
[2]
  AC50: 3.16 µM [rising, partial curve]

## COc1cccc2c1C(=O)c1c(O)c3c(c(O)c1C2=O)C[C@](O)(C(=O)CO)C[C@H]3O[C@@H]1C[C@H](N)[C@H](O)[C@H](C)O1
[1]
  AC50: 1 µM [falling, partial curve]
[2]
  AC50: 1.12 µM [falling, full curve]

## CCN(C(=O)CSc1nnc(-c2ccc(F)cc2)c2ccccc12)C1CCS(=O)(=O)C1 (stereo unspecified)
[1]
  AC50: 0.562 µM [falling, full curve, poor fit]

## Cc1ccc(N2CCN(C(=O)c3cnc(N4CCCCC4)c4ccccc34)CC2)c(C)c1
[1]
  AC50: 0.0562 µM [falling, full curve, poor fit]
[2]
  AC50: 0.0562 µM [falling, full curve, poor fit]

## COc1ccc(S(=O)(=O)Nc2ccc(S(=O)(=O)Nc3ccc(F)cc3)cc2)cc1C
[2]
  AC50: 10 µM [rising, single point]

## COc1ccc(CN(C)CC(=O)Nc2cc(OC)c([N+](=O)[O-])cc2C)c(OC)c1
[1]
  AC50: 3.98 µM [rising, partial curve]
[2]
  AC50: 7.94 µM [rising, partial curve, poor fit]

## CC(=O)c1sc(Nc2ccccn2)nc1C
[1]
  AC50: 25.1 µM [falling, single point]
[2]
  AC50: 20 µM [falling, partial curve, poor fit]

## CC(C)(CO)NC(=O)CC1C(=O)NCCN1CC(c1ccccc1)c1ccccc1 (stereo unspecified)
[1]
  AC50: 0.562 µM [rising, full curve]

## CCC(C(=O)N1CCN(c2ccccc2OC)CC1)c1ccccc1 (stereo unspecified)
[1]
  AC50: 11.2 µM [rising, single point]
[2]
  AC50: 14.1 µM [rising, single point]

## CN(C)c1ccc(/C(=N\O)C(F)(F)F)cc1
[1]
  AC50: 35.5 µM [rising, single point]

## C[C@@H]1OC(OC2CC[C@@]3(C)C(CC[C@@]4(C)C3CC=C3C5CC(C)(C)CC[C@]5(C(=O)OC5OCC(O)[C@@H](O)[C@@H]5OC5O[C@@H](C)[C@H](O[C@H]6OC(CO)C(O)C(O)C6O)C(O)C5O)C(O)C[C@@]34C)C2(C)C)C(O)C(O)[C@H]1OC1OCC(O)C(O)[C@H]1O (stereo partly specified)
[1]
  AC50: 35.5 µM [falling, single point]
[2]
  AC50: 35.5 µM [falling, single point]

## Cc1cc(Sc2ncnc(N)c2[N+](=O)[O-])ncn1
[1]
  AC50: 7.94 µM [falling, partial curve]
[2]
  AC50: 17.8 µM [falling, partial curve]

## CC(C)C(=O)Nc1cccc(C(=O)Nc2ccc3c(c2)OCO3)c1
[2]
  AC50: 7.94 µM [rising, partial curve]
